In patent US20250027085A1, “COMPOSITIONS AND METHODS FOR TREATING ALZHEIMER'S DISEASE UTILIZING A TRANSCRIPTIONAL MASTER REGULATOR OF THE RETROMER COMPLEX” (THE TRUSTEES OF COLUMBIA UNIVERSITY IN THE CITY OF NEW YORK, priority 2022, published 2025):
No constants are given. Whether binding was seen depends on the method and setting. Binding seen in cells or lysates may run through a third protein. Some results given as binding are weak or reduced against the parent protein; the word gives no strength. For part of these data: Sequences can lack the tags named with a protein. Blank lines part the entries; values can stand above or below the binder they belong to.

Sequences of proteins named here, by UniProt entry; tags and fusion partners are left off.
UniProt P18848: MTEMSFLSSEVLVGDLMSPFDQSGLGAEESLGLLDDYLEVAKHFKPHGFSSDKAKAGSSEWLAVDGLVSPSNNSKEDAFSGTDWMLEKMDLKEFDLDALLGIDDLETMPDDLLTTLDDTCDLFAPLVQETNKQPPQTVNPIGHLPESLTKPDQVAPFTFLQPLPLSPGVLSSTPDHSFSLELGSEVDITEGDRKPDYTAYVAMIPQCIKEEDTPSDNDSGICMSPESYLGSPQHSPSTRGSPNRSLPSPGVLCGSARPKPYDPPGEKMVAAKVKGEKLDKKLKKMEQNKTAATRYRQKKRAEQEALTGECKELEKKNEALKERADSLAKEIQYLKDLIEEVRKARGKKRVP

Tests used:
[1] = target: T1, endogenous rat ATF4 (hippocampal/cortical neurons) (rat) (UniProt Q9ES19); experiment: co-IP, rat neuritic extracts
T1 sequence (looked up): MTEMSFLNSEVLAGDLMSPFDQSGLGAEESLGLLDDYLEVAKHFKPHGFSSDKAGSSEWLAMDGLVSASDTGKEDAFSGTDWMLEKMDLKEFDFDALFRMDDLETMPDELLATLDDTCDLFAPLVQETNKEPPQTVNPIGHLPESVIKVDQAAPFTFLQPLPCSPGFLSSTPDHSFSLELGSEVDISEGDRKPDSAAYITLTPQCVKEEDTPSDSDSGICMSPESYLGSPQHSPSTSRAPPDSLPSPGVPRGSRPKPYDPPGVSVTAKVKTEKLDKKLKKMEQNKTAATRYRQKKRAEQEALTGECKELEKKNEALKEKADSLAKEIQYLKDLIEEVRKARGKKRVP

[2] = target: T1, endogenous rat ATF4 (hippocampal/cortical neurons) (rat); experiment: proximity ligation assay, axons, emetine
[3] = target: T1, endogenous rat ATF4 (hippocampal/cortical neurons) (rat); experiment: proximity ligation assay, axons of rat hippocampal neurons in microfluidic chambers
[4] = target: T1, endogenous rat ATF4 (hippocampal/cortical neurons) (rat); experiment: proximity ligation assay, rat hippocampal neurons treated with α-synuclein pre-formed fibrils
[5] = target: T1, endogenous rat ATF4 (hippocampal/cortical neurons) (rat); experiment: co-IP (anti-CREB3L2 IP, ATF4 blot), rat neuritic extracts
[6] = target: T1, endogenous rat ATF4 (hippocampal/cortical neurons) (rat); experiment: co-IP (anti-CREB3L2 IP, ATF4 blot), rat neurite lysates
[7] = target: T1, endogenous rat ATF4 (hippocampal/cortical neurons) (rat); experiment: proximity ligation assay, dissociated rat hippocampal neurons
[8] = target: T1, endogenous rat ATF4 (hippocampal/cortical neurons) (rat); experiment: proximity ligation assay, axons of rat hippocampal neurons
[9] = target: T1, endogenous rat ATF4 (hippocampal/cortical neurons) (rat); experiment: co-IP, rat neurite lysates
[10] = target: T1, endogenous rat ATF4 (hippocampal/cortical neurons) (rat); experiment: proximity ligation assay, rat hippocampal neurons
[11] = target: T1, endogenous rat ATF4 (hippocampal/cortical neurons) (rat); experiment: proximity ligation assay, axons, with or without emetine
[12] = target: T1, endogenous rat ATF4 (hippocampal/cortical neurons) (rat); experiment: proximity ligation assay, axons, Aβ42 plus nelfinavir
[13] = target: T1, endogenous rat ATF4 (hippocampal/cortical neurons) (rat); experiment: proximity ligation assay, axons, ciliobrevin A
[14] = target: T1, endogenous rat ATF4 (hippocampal/cortical neurons) (rat); experiment: proximity ligation assay, axons, nelfinavir
[15] = target: T1, endogenous rat ATF4 (hippocampal/cortical neurons) (rat); experiment: proximity ligation assay, axons, Aβ1-42 plus nelfinavir
[16] = target: FLAG-tagged H. sapiens ATF4 (H. sapiens) (UniProt P18848); experiment: co-IP in HEK293 cells
[17] = target: FLAG-tagged H. sapiens ATF4 (H. sapiens) (UniProt P18848); experiment: co-IP of in vitro translated proteins, rabbit reticulocyte lysate
[18] = target: FLAG-tagged H. sapiens ATF4 (H. sapiens) (UniProt P18848); experiment: co-IP (anti-ATF4 IP, anti-GFP blot) of in vitro translated proteins, rabbit reticulocyte lysate
[19] = target: FLAG-tagged H. sapiens ATF4 (H. sapiens) (UniProt P18848); experiment: co-IP of in vitro translated proteins
[20] = target: FLAG-tagged H. sapiens ATF4 (H. sapiens) (UniProt P18848); experiment: co-IP in HEK293 cells (overexpression model)
[21] = target: FLAG-tagged H. sapiens ATF4 (H. sapiens) (UniProt P18848); experiment: co-IP, in vitro translated or overexpressed tagged proteins
[22] = target: FLAG-tagged H. sapiens ATF4 (H. sapiens) (UniProt P18848); experiment: co-IP, in vitro translated and HEK293-overexpressed proteins
[23] = target: endogenous human ATF4 (post-mortem brain) (human) (UniProt P18848); experiment: proximity ligation assay, human AD prefrontal cortex sections, neurofilament co-stain
[24] = target: endogenous human ATF4 (post-mortem brain) (human) (UniProt P18848); experiment: co-IP (anti-ATF4 IP, CREB3L2 blot), human prefrontal cortex
[25] = target: endogenous human ATF4 (post-mortem brain) (human) (UniProt P18848); experiment: proximity ligation assay, human AD prefrontal cortex sections
[26] = target: endogenous human ATF4 (post-mortem brain) (human) (UniProt P18848); experiment: co-IP (anti-CREB3L2 IP, ATF4 blot), human prefrontal cortex
[27] = target: endogenous human ATF4 (post-mortem brain) (human) (UniProt P18848); experiment: proximity ligation assay, human substantia nigra sections
[28] = target: endogenous human ATF4 (post-mortem brain) (human) (UniProt P18848); experiment: proximity ligation assay, human prefrontal cortex sections
[29] = target: T2, endogenous mouse ATF4 (5xFAD / wild-type hippocampus) (mouse) (UniProt Q06507); experiment: proximity ligation assay, mouse brain sections (5xFAD against age-matched controls)
T2 sequence (looked up): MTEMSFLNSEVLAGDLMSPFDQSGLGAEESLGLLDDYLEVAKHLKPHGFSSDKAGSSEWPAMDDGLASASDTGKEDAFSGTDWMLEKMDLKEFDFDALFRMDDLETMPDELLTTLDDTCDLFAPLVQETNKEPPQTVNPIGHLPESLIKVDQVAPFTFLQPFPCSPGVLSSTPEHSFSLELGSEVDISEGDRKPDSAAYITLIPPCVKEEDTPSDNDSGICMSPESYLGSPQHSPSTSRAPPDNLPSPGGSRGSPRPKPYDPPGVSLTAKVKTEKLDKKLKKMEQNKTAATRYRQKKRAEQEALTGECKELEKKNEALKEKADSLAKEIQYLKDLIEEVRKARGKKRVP

[30] = target: T2, endogenous mouse ATF4 (5xFAD / wild-type hippocampus) (mouse); experiment: proximity ligation assay, mouse brain sections

B1: endogenous rat CREB3L2 (hippocampal/cortical neurons) (protein, UniProt Q6QDP7 1-521, looked up)
chain: MEVLESGEQSVLQWDRKLSELSEPGETEALMYHTHFSELLDEFSQNVLGQLLNDPFLSEKSVSMEVEPSPTSPAPLIQAEHSYSLSEEPRAQSPFTHVAASDGFNDEEVESEKWYLSTEFPSATIKTEPITEEQPPGLVPSVTLTITAISTPFEKEESPLDMSAGGDSSCQTLIPKIKLEPHEVDQFLNFSPKEASVDQLHLPPTPPSSHSSDSEGSLSPNPRLHPFSLSQAHSPGRAMPRGPSALSTSPLLTAPHKLQGSGPLVLTEEEKRTLIAEGYPIPTKLPLTKSEEKALKKIRRKIKNKISAQESRRKKKEYMDSLEKKVESCSTENLELRKKVEVLENTNRTLLQQLQKLQTLVMGKVSRTCKLAGTQTGTCLMVVVLCFAVAFGSLFQGYGLYPSATKMALPSQHPLSEPYTASVVRSRNLLIYEEHSSLEESSSPASAGELGGWDRGSSLLRASSGLEALPEVDLPHFIISKETSLEKSVLLELQQHLVSSKLEGNETLKVVELERRVNATF
- binding [1]: binds
- binding [2]: binds
- binding [3]: binds
- binding [4]: binds
- binding [5]: binds
- binding [6]: binds
- binding [7]: binds
- binding [8]: binds
- binding [9]: binds
- binding [10]: binds
- binding [11]: binds
- binding [12]: binds
- binding [13]: binds
- binding [14]: binds
- binding [15]: binds

B4: endogenous mouse CREB3L2 (5xFAD / wild-type hippocampus) (protein, UniProt Q8BH52 1-521, looked up)
chain: MEVLESGEQSVLQWDRKLSELSEPGETEALMYHTHFSELLDEFSQNVLGQLLSDPFLSEKSESMEVEPSPTSPAPLIQAEHSYSLSEEPRTQSPFTHAATSDSFNDEEVESEKWYLSTEFPSATIKTEPITEEQPPGLVPSVTLTITAISTPFEKEESPLDMNAGGDSSCQTLIPKIKLEPHEVDQFLNFSPKEASVDQLHLPPTPPSSHSSDSEGSLSPNPRLHPFSLSQAHSPARAMPRGPSALSTSPLLTAPHKLQGSGPLVLTEEEKRTLVAEGYPIPTKLPLTKSEEKALKKIRRKIKNKISAQESRRKKKEYMDSLEKKVESCSTENLELRKKVEVLENTNRTLLQQLQKLQTLVMGKVSRTCKLAGTQTGTCLMVVVLCFAVAFGSFFQGYGPYPSATKMALPSQHPLSEPYTASVVRSRNLLIYEEHAPLEESSSPASAGELGGWDRGSSLLRASSGLEALPEVDLPHFLISNETSLEKSVLLELQQHLVSSKLEGNETLKVVELERRVNATF
- binding [29]: binds
- binding [30]: binds

Next, values leading:

- binding [16]: binds
- binding [17]: binds
- binding [18]: binds
- binding [19]: binds
- binding [20]: binds
- binding [21]: binds
- binding [22]: binds
B2: GFP-tagged H. sapiens CREB3L2, cleaved (activated) form (protein, UniProt Q70SY1 1-384, looked up, not shown: large carriers)
chain: MEVLESGEQGVLQWDRKLSELSEPGDGEALMYHTHFSELLDEFSQNVLGQLLNDPFLSEKSVSMEVEPSPTSPAPLIQAEHSYSLCEEPRAQSPFTHITTSDSFNDDEVESEKWYLSTDFPSTSIKTEPVTDEPPPGLVPSVTLTITAISTPLEKEEPPLEMNTGVDSSCQTIIPKIKLEPHEVDQFLNFSPKEAPVDHLHLPPTPPSSHGSDSEGSLSPNPRLHPFSLPQTHSPSRAAPRAPSALSSSPLLTAPHKLQGSGPLVLTEEEKRTLIAEGYPIPTKLPLSKSEEKALKKIRRKIKNKISAQESRRKKKEYMDSLEKKVESCSTENLELRKKVEVLENTNRTLLQQLQKLQTLVMGKVSRTCKLAGTQTGTCLMVVV

- binding [23]: binds
- binding [24]: binds
- binding [25]: binds
- binding [26]: binds
- binding [27]: binds
- binding [28]: binds
B3: endogenous human CREB3L2 (post-mortem brain) (protein, UniProt Q70SY1 1-520, looked up)
chain: MEVLESGEQGVLQWDRKLSELSEPGDGEALMYHTHFSELLDEFSQNVLGQLLNDPFLSEKSVSMEVEPSPTSPAPLIQAEHSYSLCEEPRAQSPFTHITTSDSFNDDEVESEKWYLSTDFPSTSIKTEPVTDEPPPGLVPSVTLTITAISTPLEKEEPPLEMNTGVDSSCQTIIPKIKLEPHEVDQFLNFSPKEAPVDHLHLPPTPPSSHGSDSEGSLSPNPRLHPFSLPQTHSPSRAAPRAPSALSSSPLLTAPHKLQGSGPLVLTEEEKRTLIAEGYPIPTKLPLSKSEEKALKKIRRKIKNKISAQESRRKKKEYMDSLEKKVESCSTENLELRKKVEVLENTNRTLLQQLQKLQTLVMGKVSRTCKLAGTQTGTCLMVVVLCFAVAFGSFFQGYGPYPSATKMALPSQHSLQEPYTASVVRSRNLLIYEEHSPPEESSSPGSAGELGGWDRGSSLLRVSGLESRPDVDLPHFIISNETSLEKSVLLELQQHLVSAKLEGNETLKVVELDRRVNTTF
